Laboratory results published in the supplement of paper PMC10849652.
Some of the results follow.

Amino acid sequences for entries named in this document (tags omitted). A change or cut given only in a name is not applied to a line headed by its entry.
UniProt Q96S94: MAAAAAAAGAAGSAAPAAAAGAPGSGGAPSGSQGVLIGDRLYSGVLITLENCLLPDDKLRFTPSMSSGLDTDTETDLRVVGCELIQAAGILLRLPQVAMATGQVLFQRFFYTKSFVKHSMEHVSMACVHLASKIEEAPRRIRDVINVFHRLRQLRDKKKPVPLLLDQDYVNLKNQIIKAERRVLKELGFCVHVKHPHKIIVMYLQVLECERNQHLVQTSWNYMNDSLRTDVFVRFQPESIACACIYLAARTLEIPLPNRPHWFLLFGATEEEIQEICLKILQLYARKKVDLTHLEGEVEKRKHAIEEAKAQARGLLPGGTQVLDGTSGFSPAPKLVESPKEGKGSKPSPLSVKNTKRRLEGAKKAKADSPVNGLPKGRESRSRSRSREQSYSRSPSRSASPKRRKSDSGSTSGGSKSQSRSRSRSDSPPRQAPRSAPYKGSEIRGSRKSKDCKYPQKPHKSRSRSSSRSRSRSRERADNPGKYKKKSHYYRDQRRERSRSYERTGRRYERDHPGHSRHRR
UniProt O43303: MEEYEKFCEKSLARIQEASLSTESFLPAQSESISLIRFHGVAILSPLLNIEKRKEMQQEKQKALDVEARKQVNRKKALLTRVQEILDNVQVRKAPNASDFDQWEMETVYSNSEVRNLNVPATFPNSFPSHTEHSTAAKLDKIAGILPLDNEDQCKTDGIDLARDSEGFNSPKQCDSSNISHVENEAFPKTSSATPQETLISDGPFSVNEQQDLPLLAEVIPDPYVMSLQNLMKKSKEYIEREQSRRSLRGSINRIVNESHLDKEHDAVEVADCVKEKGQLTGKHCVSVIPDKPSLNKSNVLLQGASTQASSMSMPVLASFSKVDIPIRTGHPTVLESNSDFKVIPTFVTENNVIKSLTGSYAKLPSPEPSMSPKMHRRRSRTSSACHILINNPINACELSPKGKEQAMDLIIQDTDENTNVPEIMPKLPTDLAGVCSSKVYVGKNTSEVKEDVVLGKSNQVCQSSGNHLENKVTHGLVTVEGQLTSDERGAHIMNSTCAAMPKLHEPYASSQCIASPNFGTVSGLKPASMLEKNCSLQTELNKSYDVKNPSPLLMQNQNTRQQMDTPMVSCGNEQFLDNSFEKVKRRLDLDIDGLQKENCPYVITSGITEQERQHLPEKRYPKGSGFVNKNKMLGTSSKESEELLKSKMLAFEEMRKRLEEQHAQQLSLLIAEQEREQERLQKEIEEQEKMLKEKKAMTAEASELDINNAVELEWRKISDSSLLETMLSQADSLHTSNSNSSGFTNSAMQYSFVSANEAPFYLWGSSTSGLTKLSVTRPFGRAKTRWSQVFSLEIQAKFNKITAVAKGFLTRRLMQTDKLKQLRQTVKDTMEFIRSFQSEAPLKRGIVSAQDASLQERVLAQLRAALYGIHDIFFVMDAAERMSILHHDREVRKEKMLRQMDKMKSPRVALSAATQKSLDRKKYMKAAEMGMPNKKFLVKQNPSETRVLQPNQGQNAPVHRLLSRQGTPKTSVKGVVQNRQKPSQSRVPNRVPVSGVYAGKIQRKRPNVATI
UniProt Q8N4J0: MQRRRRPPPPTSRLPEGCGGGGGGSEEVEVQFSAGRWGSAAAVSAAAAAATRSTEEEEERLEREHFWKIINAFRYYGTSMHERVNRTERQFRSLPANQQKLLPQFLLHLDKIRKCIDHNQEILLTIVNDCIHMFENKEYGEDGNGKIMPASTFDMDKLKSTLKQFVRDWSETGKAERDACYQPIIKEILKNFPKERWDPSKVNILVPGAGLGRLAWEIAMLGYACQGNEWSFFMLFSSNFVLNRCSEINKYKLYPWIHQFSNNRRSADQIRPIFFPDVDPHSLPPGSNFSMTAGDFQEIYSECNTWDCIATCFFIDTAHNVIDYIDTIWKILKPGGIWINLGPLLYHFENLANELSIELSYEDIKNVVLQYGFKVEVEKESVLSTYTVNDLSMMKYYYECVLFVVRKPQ
UniProt P83916, whole entry, looked up: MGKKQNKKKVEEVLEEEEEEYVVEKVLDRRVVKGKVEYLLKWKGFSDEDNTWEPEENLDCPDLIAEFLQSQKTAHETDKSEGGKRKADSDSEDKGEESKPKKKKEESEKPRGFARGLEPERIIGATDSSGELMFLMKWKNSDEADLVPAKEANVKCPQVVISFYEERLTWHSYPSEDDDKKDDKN
UniProt Q92851: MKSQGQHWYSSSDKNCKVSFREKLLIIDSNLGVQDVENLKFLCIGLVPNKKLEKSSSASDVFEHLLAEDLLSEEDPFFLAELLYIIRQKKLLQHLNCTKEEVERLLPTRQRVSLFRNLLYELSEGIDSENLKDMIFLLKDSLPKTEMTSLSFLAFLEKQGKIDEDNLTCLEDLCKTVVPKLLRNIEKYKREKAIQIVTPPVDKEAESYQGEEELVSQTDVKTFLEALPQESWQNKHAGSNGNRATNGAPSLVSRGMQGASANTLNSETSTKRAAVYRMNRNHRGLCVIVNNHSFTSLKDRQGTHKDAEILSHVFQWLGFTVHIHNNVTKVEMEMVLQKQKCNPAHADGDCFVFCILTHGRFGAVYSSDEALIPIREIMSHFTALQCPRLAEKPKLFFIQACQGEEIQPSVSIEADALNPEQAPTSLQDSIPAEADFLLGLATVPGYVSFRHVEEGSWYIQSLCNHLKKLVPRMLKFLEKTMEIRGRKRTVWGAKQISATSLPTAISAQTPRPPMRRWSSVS
UniProt P48643, whole entry, looked up: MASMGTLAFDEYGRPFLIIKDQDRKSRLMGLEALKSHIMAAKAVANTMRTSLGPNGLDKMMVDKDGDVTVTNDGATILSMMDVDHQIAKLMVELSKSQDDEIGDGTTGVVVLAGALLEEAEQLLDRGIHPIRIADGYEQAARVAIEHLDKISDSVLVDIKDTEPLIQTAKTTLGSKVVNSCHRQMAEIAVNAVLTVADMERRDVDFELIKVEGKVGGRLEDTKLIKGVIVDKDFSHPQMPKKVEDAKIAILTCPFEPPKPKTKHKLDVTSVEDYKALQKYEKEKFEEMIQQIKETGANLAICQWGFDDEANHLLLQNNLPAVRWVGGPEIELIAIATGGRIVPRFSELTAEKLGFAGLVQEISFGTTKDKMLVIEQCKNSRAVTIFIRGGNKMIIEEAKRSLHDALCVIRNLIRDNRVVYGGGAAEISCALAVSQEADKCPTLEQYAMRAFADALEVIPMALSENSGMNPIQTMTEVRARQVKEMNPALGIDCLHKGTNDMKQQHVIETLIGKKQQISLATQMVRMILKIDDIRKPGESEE
UniProt P13994: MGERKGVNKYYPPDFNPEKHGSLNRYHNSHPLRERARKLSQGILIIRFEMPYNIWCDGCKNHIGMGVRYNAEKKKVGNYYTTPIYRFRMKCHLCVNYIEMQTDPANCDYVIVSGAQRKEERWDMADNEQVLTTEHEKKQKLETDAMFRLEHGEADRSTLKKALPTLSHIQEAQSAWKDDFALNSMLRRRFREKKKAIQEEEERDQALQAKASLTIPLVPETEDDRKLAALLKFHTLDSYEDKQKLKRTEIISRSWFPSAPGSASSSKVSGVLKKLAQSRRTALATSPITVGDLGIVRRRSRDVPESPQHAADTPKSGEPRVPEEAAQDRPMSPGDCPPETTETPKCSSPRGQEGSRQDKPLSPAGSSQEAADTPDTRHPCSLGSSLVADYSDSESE
UniProt Q4G0I0: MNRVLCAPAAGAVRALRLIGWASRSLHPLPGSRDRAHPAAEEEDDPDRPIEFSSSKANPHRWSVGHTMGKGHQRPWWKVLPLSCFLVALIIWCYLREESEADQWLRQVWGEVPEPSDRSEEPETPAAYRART
UniProt Q9P219: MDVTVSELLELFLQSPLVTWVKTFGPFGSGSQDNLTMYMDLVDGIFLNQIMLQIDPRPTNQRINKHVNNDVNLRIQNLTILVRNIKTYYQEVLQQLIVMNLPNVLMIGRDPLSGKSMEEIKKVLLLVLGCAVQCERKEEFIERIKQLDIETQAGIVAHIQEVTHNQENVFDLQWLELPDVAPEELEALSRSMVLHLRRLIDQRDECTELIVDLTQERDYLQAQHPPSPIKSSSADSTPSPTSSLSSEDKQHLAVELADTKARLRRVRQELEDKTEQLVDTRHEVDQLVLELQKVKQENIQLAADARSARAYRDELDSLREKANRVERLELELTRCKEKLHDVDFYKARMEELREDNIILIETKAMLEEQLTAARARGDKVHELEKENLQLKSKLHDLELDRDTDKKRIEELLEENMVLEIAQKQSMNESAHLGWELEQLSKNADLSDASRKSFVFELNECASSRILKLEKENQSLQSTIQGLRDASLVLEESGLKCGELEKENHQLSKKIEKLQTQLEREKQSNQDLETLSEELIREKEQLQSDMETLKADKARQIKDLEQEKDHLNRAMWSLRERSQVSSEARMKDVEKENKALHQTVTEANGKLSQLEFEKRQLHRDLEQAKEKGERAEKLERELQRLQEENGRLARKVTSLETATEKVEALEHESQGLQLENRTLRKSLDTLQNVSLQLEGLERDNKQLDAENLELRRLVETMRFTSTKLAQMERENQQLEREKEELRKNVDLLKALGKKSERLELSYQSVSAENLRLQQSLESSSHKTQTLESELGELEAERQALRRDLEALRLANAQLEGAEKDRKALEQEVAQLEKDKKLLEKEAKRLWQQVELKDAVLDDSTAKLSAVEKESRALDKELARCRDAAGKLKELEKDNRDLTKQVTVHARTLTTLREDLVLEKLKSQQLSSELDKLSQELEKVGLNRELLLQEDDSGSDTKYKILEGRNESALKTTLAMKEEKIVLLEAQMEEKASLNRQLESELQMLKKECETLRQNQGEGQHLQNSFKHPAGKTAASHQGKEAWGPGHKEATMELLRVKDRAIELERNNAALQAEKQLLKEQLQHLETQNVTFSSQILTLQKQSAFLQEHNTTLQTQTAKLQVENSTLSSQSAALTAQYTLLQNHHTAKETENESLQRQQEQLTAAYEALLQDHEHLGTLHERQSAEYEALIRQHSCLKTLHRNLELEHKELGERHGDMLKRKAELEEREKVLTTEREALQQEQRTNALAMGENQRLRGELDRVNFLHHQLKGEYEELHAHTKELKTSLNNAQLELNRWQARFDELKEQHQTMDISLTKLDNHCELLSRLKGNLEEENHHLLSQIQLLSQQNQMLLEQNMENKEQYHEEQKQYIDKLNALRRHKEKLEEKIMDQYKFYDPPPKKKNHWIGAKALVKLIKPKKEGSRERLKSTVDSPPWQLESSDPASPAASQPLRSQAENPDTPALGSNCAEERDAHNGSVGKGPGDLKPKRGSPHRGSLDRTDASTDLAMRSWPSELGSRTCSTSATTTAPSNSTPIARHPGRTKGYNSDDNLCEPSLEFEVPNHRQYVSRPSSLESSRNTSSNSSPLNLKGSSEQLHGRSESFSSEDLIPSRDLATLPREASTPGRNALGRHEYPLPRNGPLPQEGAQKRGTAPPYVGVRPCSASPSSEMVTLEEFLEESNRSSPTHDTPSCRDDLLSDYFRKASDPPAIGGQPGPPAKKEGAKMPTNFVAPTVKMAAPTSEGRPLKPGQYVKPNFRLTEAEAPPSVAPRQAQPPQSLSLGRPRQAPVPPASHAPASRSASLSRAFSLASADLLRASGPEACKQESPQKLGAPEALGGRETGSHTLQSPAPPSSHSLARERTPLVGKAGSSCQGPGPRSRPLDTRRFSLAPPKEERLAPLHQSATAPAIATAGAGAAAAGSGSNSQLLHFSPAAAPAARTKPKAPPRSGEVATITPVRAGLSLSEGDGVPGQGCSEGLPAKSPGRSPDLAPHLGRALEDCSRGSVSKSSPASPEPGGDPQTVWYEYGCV
UniProt P24864, whole entry, looked up: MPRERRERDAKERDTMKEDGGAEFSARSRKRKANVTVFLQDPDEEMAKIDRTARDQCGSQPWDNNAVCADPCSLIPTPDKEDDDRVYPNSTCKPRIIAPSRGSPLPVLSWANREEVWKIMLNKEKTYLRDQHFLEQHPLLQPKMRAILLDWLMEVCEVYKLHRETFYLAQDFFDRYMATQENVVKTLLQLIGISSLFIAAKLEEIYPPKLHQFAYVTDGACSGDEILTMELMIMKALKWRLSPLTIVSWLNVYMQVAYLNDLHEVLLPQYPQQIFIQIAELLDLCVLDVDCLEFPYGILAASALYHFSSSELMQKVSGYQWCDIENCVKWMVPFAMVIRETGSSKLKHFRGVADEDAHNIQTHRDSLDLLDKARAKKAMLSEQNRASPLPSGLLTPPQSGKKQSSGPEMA
UniProt P20248, whole entry, looked up: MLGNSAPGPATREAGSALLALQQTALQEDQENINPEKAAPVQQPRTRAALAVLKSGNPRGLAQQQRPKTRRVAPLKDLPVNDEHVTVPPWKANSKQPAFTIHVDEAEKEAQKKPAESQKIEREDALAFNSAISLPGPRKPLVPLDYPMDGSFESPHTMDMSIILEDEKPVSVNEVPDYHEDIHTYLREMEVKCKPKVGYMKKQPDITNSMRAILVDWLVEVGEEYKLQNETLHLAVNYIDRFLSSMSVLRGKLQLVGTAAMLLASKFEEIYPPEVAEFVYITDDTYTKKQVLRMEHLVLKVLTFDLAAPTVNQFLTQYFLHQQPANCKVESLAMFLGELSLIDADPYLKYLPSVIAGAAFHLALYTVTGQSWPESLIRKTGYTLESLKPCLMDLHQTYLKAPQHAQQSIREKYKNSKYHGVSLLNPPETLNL

Key:
Assay in all cases: log2 fold change, soluble protein after heating vs DMSO (PISA); higher = thermal stabilisation; K562 lysate, 10 uM; active = over 0.2 and 3.5 SD of the protein, either way, in both replicates (recomputed)
[1] = compound: C1=CC=C(C=C1)[C@H](COC2=CC3=C(C=C2)NC(=O)N3)NC(=O)C4=CC=CN(C4=O)CC5=CC(=C(C=C5)F)F
Procedure, shortened: (§1)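 Dounce homogenisation of K562 pellets in PBS pH 7.4 with 1 mM MgCl2 produced a crude extract, used at 1 mg/mL protein. Exposure to 10 μM compound lasted 30 min, and aliquots were then heated for 3 min across 48°C-58°C, pooled and brought to 0.5% NP-40 at 4°C. The supernatant after 21,000xg for 90 min was quantified by TMTpro 16plex LC-MS/MS with channel sums equalised. Duplicate values are given as log-two fold change in thermal stability relative to solvent controls.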

[2] = compound: CC1=C(SC2=C1C(=N[C@H](C3=NN=C(N32)C)CC(=O)N)C4=CC=C(C=C4)Cl)C
Procedure, shortened: as §1

[3] = compound: CC1=C2C(=CC=C1)N=C(N(C2=O)C3=CC=CC=C3C)CN4C=NC5=C(N=CN=C54)N
Procedure, shortened: as §1

[4] = compound: Cc1sc2c(c1C)C(c1ccc(Cl)cc1)=N[C@@H](CC(=O)OC(C)(C)C)c1nnc(C)n1-2
Procedure, shortened: as §1

[5] = compound: c1ccc([C@@H]2C[C@H]2NC2CCNCC2)cc1
Procedure, shortened: as §1

Measured: log2 fold change

CCNL2 (UniProt Q96S94)
inactive: [1] 0 | [2] 0.134 | [3] 0.028 | [4] -0.092 | [5] -0.004

CCT4 (UniProt P50991)
inactive: [1] -0.012 | [2] 0.015 | [3] -0.005 | [4] 0.057 | [5] -0.032

CCNB2 (UniProt O95067)
inactive: [1] -0.005 | [2] 0.026 | [3] 0.047 | [4] 0.048 | [5] 0.033

CCP110 (UniProt O43303)
inactive: [1] -0.026 | [2] 0.093 | [3] 0.104 | [4] -0.143

CCS (UniProt O14618)
inactive: [1] -0.024 | [2] -0.026 | [3] 0.015 | [4] -0.018 | [5] -0.01

CCDC32 isoform 2 (UniProt Q9BV29)
inactive: [1] -0.132 | [2] -0.103 | [3] -0.058 | [4] 0.015 | [5] -0.109

CCDC88A (UniProt Q3V6T2)
inactive: [1] 0.01 | [2] 0.037 | [3] 0.006 | [4] -0.005 | [5] 0

CARNMT1 (UniProt Q8N4J0)
inactive: [1] 0.032 | [2] -0.003 | [3] 0.072 | [4] -0.039 | [5] -0.174

CCDC134 (UniProt Q9H6E4)
inactive: [1] 0.015 | [2] 0.012 | [3] 0.057 | [4] 0.01 | [5] 0.02

CBLB (UniProt Q13191)
inactive: [1] 0.005 | [2] -0.067 | [3] 0.052 | [4] 0.063 | [5] 0.014

CASP6 (UniProt P55212)
inactive: [1] 0.004 | [2] 0.011 | [3] 0.015 | [4] 0.009 | [5] -0.005

CBX4 (UniProt O00257)
inactive: [1] -0.094 | [2] -0.002 | [3] -0.078 | [4] -0.062 | [5] 0.094

CASP3 (UniProt P42574)
inactive: [1] 0.051 | [2] -0.011 | [3] 0.039 | [4] 0.051 | [5] 0.103

CCDC97 (UniProt Q96F63)
inactive: [1] -0.019 | [2] 0.013 | [3] -0.044 | [4] 0.008 | [5] 0.058

CCT3 (UniProt E9PM09)
inactive: [1] -0.103 | [2] 0.098 | [3] 0.102 | [4] 0.021

CCDC86 (UniProt Q9H6F5)
inactive: [1] 0.013 | [2] 0.069 | [3] -0.001 | [4] -0.044 | [5] -0.089

CCT2 (UniProt P78371)
inactive: [1] -0.013 | [2] 0.005 | [3] -0.014 | [4] 0.019 | [5] 0.019

CCRL2 isoform 2 (UniProt O00421)
inactive: [1] -0.014 | [2] 0

CCDC102A (UniProt Q96A19)
inactive: [1] -0.029 | [2] -0.045 | [3] -0.018

CD46 isoform 2 (UniProt P15529)
inactive: [1] 0.006 | [2] 0.007 | [3] -0.006 | [4] -0.096 | [5] 0.035

CARM1 (UniProt Q86X55)
inactive: [1] 0.012 | [2] 0.02 | [3] 0.002 | [4] -0.016 | [5] -0.004

CASC3 (UniProt O15234)
inactive: [1] 0.013 | [2] 0.015 | [3] -0.016 | [4] 0.032 | [5] -0.039

CD226 (UniProt Q15762)
inactive: [1] 0.026 | [2] 0.096

CCDC186 (UniProt Q7Z3E2)
inactive: [1] 0.031 | [2] 0.085 | [3] 0.055 | [4] -0.016 | [5] 0.105

Fetched one by one from the list above (3):
CD226 (UniProt Q15762)
inactive: [1] 0.026 | [2] 0.096

CCDC186 (UniProt Q7Z3E2)
inactive: [1] 0.031 | [2] 0.085 | [3] 0.055 | [4] -0.016 | [5] 0.105

CCDC102A (UniProt Q96A19)
inactive: [1] -0.029 | [2] -0.045 | [3] -0.018

(list continues)

CCDC51 (UniProt Q96ER9)
inactive: [1] -0.063 | [2] 0.023 | [3] -0.029 | [4] 0.014 | [5] 0.157

CCNT2 (UniProt O60583)
inactive: [1] 0.049 | [2] 0.103 | [3] 0.164 | [4] -0.027

CBX1 (UniProt P83916)
inactive: [1] 0.031 | [2] -0.03 | [3] 0.032 | [4] 0.009 | [5] 0.13

CCDC167 (UniProt Q9P0B6)
inactive: [1] -0.15 | [2] -0.059

CASP10 isoform 4 (UniProt Q92851)
inactive: [1] 0.001 | [2] -0.018 | [3] -0.004 | [4] -0.015 | [5] 0.01

CCDC144A (UniProt A2RUR9)
inactive: [1] 0.007 | [2] 0.175 | [3] 0.154 | [4] -0.191

CD55 isoform 7 (UniProt P08174)
inactive: [1] 0 | [2] 0.007 | [3] 0.003 | [4] -0.012 | [5] -0.057

CCDC22 (UniProt O60826)
inactive: [1] -0.009 | [2] 0 | [3] -0.044 | [4] 0.053 | [5] 0.032

CCT5 (UniProt P48643)
inactive: [1] 0.004 | [2] -0.009 | [3] -0.006 | [4] 0.033 | [5] -0.019

CCT3 (UniProt P49368)
inactive: [1] 0.001 | [2] -0.001 | [3] -0.008 | [4] 0.016 | [5] 0.028

CCDC90B (UniProt Q9GZT6)
inactive: [1] -0.064 | [2] 0.022 | [3] 0.024 | [4] -0.077 | [5] -0.018

CCDC130 (UniProt P13994)
inactive: [1] 0.01 | [2] 0.038

CCSMST1 (UniProt Q4G0I0)
inactive: [1] 0.061 | [2] -0.074 | [3] 0.015 | [4] -0.042 | [5] 0.026

CCDC88C (UniProt Q9P219)
inactive: [1] 0.051 | [2] 0.184 | [3] 0.008 | [4] 0.153 | [5] -0.019

CCDC50 (UniProt Q8IVM0)
inactive: [1] -0.015 | [2] 0.054

CBFB isoform 2 (UniProt Q13951)
inactive: [1] 0.012 | [2] -0.01 | [3] 0.032 | [4] -0.034 | [5] -0.122

CCNYL1 (UniProt Q8N7R7)
inactive: [1] -0.007 | [2] -0.089 | [3] -0.009 | [4] -0.058 | [5] -0.079

CCNE1 (UniProt P24864)
inactive: [1] 0.014 | [2] -0.006 | [3] 0.108 | [4] -0.06 | [5] -0.141

CCNH (UniProt P51946)
inactive: [1] -0.028 | [2] -0.004 | [3] 0.022 | [4] -0.039 | [5] -0.01

CBS (UniProt P35520)
inactive: [1] -0.017 | [2] 0.013 | [3] -0.001 | [4] 0.034 | [5] 0.028

CASKIN2 (UniProt Q8WXE0)
inactive: [1] 0.046 | [2] -0.027 | [3] -0.098 | [4] -0.023 | [5] -0.023

CASP2 (UniProt P42575)
inactive: [1] 0.018 | [2] 0.054 | [3] -0.031 | [4] 0.041 | [5] -0.021

CCDC28A (UniProt Q8IWP9)
inactive: [1] 0.074 | [2] 0.081 | [3] 0.033 | [4] -0.109 | [5] -0.01

CAVIN1 (UniProt Q6NZI2)
inactive: [1] 0.038 | [2] 0.044 | [3] -0.027 | [4] 0.001 | [5] 0.003

CD59 isoform 2 (UniProt P13987)
inactive: [1] -0.026 | [2] 0.032 | [3] 0.017 | [4] -0.028 | [5] -0.001

CD47 (UniProt Q08722)
inactive: [1] 0.015 | [2] -0.002 | [3] -0.01 | [4] -0.007 | [5] -0.096

CASK (UniProt O14936)
inactive: [1] -0.069 | [2] -0.07 | [3] 0.098 | [4] -0.105 | [5] 0.039

CBX5 (UniProt P45973)
inactive: [1] 0.04 | [2] -0.002 | [3] -0.038 | [4] 0.031 | [5] -0.135

CARS isoform 3 (UniProt P49589)
inactive: [1] -0.026 | [2] 0.014 | [3] 0.007 | [4] 0.035 | [5] 0.03

CCDC115 (UniProt Q96NT0)
inactive: [1] -0.01 | [2] -0.014 | [3] 0.032 | [4] 0.047 | [5] -0.026

CBL (UniProt P22681)
inactive: [1] 0.049 | [2] -0.014 | [3] -0.022 | [4] 0.031 | [5] 0.015

CCNA2 (UniProt P20248)
inactive: [1] 0.013 | [2] -0.006 | [3] -0.003 | [4] -0.021 | [5] -0.068
